Paper PMC4898701
No constants are given. Whether binding was seen depends on the method and setting. Binding seen in cells or lysates may run through a third protein. Some results given as binding are weak or reduced against the parent protein; the word gives no strength. For some assays here: Tags and fused reporters may be left off the sequences shown.

Amino acid sequences for entries named in this document (tags omitted).
UniProt G3V7W1: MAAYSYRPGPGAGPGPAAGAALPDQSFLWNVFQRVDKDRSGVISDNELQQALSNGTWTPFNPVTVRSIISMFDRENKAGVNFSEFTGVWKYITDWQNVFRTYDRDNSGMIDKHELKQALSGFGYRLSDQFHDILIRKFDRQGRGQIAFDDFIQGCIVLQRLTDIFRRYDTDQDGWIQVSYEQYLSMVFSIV

Legend:
[1] = target: T1, FLAG-PRR 800-1113 construct (sec31A proline rich region) (human) (UniProt O94979); test: co-IP; whole cell CHAPS extracts of NRK cells transfected with FLAG-PRR and control or peflin siRNA, precipitated with anti-FLAG beads; immunoblot for FLAG and endogenous ALG-2; co-precipitation increased in peflin-depleted cells
T1 sequence: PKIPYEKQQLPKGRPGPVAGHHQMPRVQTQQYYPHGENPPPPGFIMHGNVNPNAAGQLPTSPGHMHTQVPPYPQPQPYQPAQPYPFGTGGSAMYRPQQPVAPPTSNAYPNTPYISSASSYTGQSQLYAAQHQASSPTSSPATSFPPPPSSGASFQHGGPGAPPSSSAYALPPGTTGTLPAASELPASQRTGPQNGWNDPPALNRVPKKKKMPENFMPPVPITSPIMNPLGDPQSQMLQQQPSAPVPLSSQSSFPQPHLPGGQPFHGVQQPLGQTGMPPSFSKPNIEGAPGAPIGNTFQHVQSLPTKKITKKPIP

[2] = target: T2, sec31A, endogenous in NRK cells (rat (endogenous in NRK)) (UniProt Q9Z2Q1); test: co-IP; whole cell CHAPS extracts of NRK cells (control or peflin siRNA) precipitated with anti-sec31A antibody conjugated to protein A-Sepharose beads, 2 h at 4°C, 20 mM Tris-HCl pH 7.4, 150 mM KCl, 10 mM CHAPS; immunoblot for sec31A and ALG-2; about 3-fold more ALG-2 co-precipitated in peflin-depleted cells
T2 sequence: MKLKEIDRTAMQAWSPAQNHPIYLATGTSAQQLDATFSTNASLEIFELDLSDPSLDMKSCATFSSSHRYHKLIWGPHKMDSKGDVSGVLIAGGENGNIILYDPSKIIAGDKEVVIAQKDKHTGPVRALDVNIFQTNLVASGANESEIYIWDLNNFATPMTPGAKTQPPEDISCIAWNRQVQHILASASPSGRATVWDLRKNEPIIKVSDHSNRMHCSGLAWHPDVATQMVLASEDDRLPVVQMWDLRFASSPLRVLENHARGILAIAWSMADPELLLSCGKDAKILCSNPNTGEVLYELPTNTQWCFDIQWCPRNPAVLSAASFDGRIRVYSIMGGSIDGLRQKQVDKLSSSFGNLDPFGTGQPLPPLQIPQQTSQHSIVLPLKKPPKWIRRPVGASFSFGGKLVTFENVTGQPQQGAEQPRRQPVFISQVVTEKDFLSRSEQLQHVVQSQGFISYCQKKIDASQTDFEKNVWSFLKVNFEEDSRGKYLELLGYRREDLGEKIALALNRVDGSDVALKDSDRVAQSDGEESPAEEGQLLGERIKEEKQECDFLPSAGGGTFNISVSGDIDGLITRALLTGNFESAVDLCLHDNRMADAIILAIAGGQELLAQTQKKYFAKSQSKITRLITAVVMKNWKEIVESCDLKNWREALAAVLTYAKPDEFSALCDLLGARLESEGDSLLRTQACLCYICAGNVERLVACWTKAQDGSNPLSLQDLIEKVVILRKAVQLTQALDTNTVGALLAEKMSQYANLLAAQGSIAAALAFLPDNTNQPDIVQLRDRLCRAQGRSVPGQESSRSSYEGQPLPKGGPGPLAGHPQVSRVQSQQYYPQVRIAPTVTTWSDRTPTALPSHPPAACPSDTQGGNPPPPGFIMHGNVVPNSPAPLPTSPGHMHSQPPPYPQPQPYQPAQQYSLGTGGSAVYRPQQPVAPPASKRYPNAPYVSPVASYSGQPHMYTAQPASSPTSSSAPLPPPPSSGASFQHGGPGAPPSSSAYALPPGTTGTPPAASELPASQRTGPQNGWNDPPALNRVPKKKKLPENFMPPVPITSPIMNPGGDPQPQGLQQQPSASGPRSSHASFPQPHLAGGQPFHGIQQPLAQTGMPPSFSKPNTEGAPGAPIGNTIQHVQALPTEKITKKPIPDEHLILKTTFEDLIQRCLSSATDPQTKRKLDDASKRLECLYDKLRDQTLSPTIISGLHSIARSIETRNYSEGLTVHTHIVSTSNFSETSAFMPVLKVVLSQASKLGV

- binding [1]: binds
- binding [2]: binds weakly
Substance: apoptosis-linked gene 2 (ALG-2), endogenous in NRK cells (from UniProt G3V7W1 1-191)
